Experimental data: PubChem BioAssay AID652272 (Drosophila RNAi Screening Center, 2013)
The deposit covers about 21,000 reagents; shown is an unselected part of those with a known target gene and a result. Of all reagents, 503 (2.4%) got an active call. 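Raw plate light values, not normalised; calls rest on replicate z-scores that were not deposited; hits include reporter decreases as well as increases.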 Reagents against one gene are numbered here. The record does not give: the amount of reagent, the time to read-out.

Test: 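Genome-wide knock-down search for components of Hedgehog signalling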 (primary screen)
System: Drosophila clone 8 (Cl8) cells
Reagent: long dsRNA against Drosophila genes
Detection: 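Firefly light from a Hedgehog-responsive ptc promoter reporter and Renilla reference light, both read on a plate reader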
Reading the numbers: firefly Hh reporter signal: higher = more ptc reporter light; Renilla reference signal: higher = more Renilla control light
Active means: 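Called a hit if the two-replicate mean z-score lies below -2 or above +3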
Calls: active = hit: reporter lowered or raised; inactive = not a hit

predicted target | reagent | firefly Hh reporter signal, replicate 1 | firefly Hh reporter signal, replicate 2 | firefly Hh reporter signal, replicate 3 | Renilla reference signal, replicate 1 | Renilla reference signal, replicate 2 | Outcome
CG31638 | 1 | 68931 | 42837 | – | 1621 | 4672 | inactive
CG31638 | 2 | 59921 | 45464 | – | 1248 | 4439 | inactive
CG17841 | 1 | 89429 | 54037 | – | 2412 | 1529 | inactive
GCS2alpha | 1 | 67089 | 2.19e5 | – | 1382 | 9307 | inactive
Fkbp39 | 1 | 72273 | 68618 | – | 3168 | 3200 | inactive
mfas | 1 | 1.10e5 | 70624 | – | 4317 | 2677 | inactive
CG2901 | 1 | 72250 | 1.99e5 | – | 1379 | 8128 | inactive
ND-13A | 1 | 1.56e5 | 79579 | – | 3792 | 6858 | inactive
Nuak | 1 | 57842 | 87991 | – | 1485 | 2349 | inactive
Nuak | 2 | 1.19e5 | 90660 | – | 5111 | 3698 | inactive
Nuak | 3 | 92461 | 1.36e5 | – | 2281 | 4221 | inactive
CG9649 | 1 | 1.83e5 | 1.10e5 | – | 7643 | 4593 | inactive
Tcs3 | 1 | 1.03e5 | – | – | 4445 | 3170 | inactive
ppk6 | 1 | 68672 | 30410 | – | 2096 | 2672 | inactive
Ir47a | 1 | 90539 | 48710 | – | 2045 | 4464 | inactive
stmA | 1 | 2.00e5 | 3.80e5 | – | 4918 | 15495 | inactive
stmA | 2 | 83421 | 81600 | – | 2694 | 2898 | inactive
PIG-Q | 1 | 7.50e5 | 2.49e5 | – | 40645 | 5412 | inactive
MFS1 | 1 | 70317 | 42118 | – | 1260 | 3907 | inactive
dsx | 1 | 1.70e5 | – | – | 3222 | – | inactive
dsx | 2 | 1.88e5 | 6.84e5 | 1.29e5 | 8084 | 42112 | inactive
CG31125 | 1 | 48440 | 1.47e5 | – | 12616 | 4317 | active
CG33332 | 1 | 81089 | 93777 | – | 3012 | 2537 | inactive
Orc4 | 1 | 75056 | 19385 | – | 3386 | 608 | inactive
CG34026 | 1 | 4.42e5 | 1.78e5 | – | 26028 | 3708 | inactive
H15 | 1 | 87954 | 54242 | – | 1274 | 5156 | inactive
Cdc23 | 1 | 1.04e5 | 59642 | – | 3921 | 1888 | inactive

The list goes on, starting with the last 5 of the part before.
predicted target | reagent | firefly Hh reporter signal, replicate 1 | firefly Hh reporter signal, replicate 2 | firefly Hh reporter signal, replicate 3 | Renilla reference signal, replicate 1 | Renilla reference signal, replicate 2 | Outcome
CG33332 | 1 | 81089 | 93777 | – | 3012 | 2537 | inactive
Orc4 | 1 | 75056 | 19385 | – | 3386 | 608 | inactive
CG34026 | 1 | 4.42e5 | 1.78e5 | – | 26028 | 3708 | inactive
H15 | 1 | 87954 | 54242 | – | 1274 | 5156 | inactive
Cdc23 | 1 | 1.04e5 | 59642 | – | 3921 | 1888 | inactive
Npl4 | 1 | 72266 | 57146 | – | 2043 | 2272 | inactive
Npl4 | 2 | 4.24e5 | 99491 | – | 24849 | 3250 | inactive
Map60 | 1 | 97184 | 91152 | – | 4109 | 3714 | inactive
TotA | 1 | 59228 | 2.40e5 | – | 12274 | 5683 | inactive
Drep3 | 1 | 3.45e5 | 1.28e5 | 71010 | 3140 | 1990 | inactive
Drep3 | 2 | 6.10e5 | 89382 | – | 4341 | 4341 | inactive
CG15531 | 1 | 74443 | 87280 | – | 2020 | 2069 | inactive
SK | 1 | 4.71e5 | 1.60e5 | – | 22828 | 2103 | inactive
SK | 2 | 97392 | 2.83e5 | – | 2198 | 11413 | inactive
SK | 3 | 72908 | 1.74e5 | – | 1376 | 7208 | inactive
SK | 4 | 60480 | 1.32e5 | – | 854 | 4321 | active
SK | 5 | 92756 | 66041 | – | 2016 | 1588 | inactive
cpo | 1 | 52807 | 3.60e5 | – | 11795 | 8668 | inactive
cpo | 2 | 51770 | 1.43e5 | – | 11297 | 4044 | inactive
cpo | 3 | 2.80e5 | 20589 | – | 17705 | 891 | inactive
cpo | 4 | 2.28e5 | 16118 | – | 14243 | 697 | inactive
cpo | 5 | 2.70e5 | 36962 | – | 16304 | 1181 | inactive
CG14659 | 1 | 1.23e5 | 1.29e5 | – | 3856 | 2288 | inactive
CG7094 | 1 | 1.16e5 | 49427 | – | 2816 | 5140 | inactive
CG43736 | 1 | 1.11e5 | 3.24e5 | – | 2755 | 7434 | inactive
CG43736 | 2 | 1.37e5 | 3.66e5 | – | 4360 | 12826 | inactive
asRNA:CR43426 | 1 | 2.54e5 | – | – | 5014 | – | inactive
wech | 1 | 1.17e5 | 84663 | – | 4964 | 2560 | inactive
upd2 | 1 | 1.13e5 | 3.36e5 | – | 2582 | 14640 | inactive
qless | 1 | 99586 | 75762 | – | 3787 | 1908 | inactive
qless | 2 | 1.26e5 | 94249 | – | 4358 | 2263 | inactive
D1 | 1 | 1.13e5 | 1.07e5 | – | 4513 | 3746 | inactive
beat-Ib | 1 | 1.09e5 | 56854 | – | 2797 | 4772 | inactive
CG31635 | 1 | 70557 | 46129 | – | 1540 | 3744 | inactive
CG31635 | 2 | 69152 | 70920 | – | 2076 | 5324 | inactive
